Data taken from US12590340B2, “Microfluidic plasmonic color reading chips and methods” (priority 2021, dated 2026).
At least one compound was matched to its structure with a doubt left.

System: Amp resistant E. coli
Experiment: minimum inhibitory concentration (MIC) study with resazurin on the chip
Conditions: from chip MIC

NC[C@H]1O[C@H](O[C@H]2[C@H](O)[C@@H](O[C@H]3O[C@H](CO)[C@@H](O)[C@H](N)[C@H]3O)[C@H](N)C[C@@H]2N)[C@H](O)[C@@H](O)[C@@H]1O [Kanamycin]
category according to CLSI criteria: susceptible
